These are yes or no findings as the source states them, for the method shown. Binding seen in cells or lysates may run through a third protein. Some results given as binding are weak or reduced against the parent protein; the word gives no strength.
How the values were obtained:
[1] = biological target: Flag-NRP1, co-transfected in HEK293T cells (murine) (UniProt P97333); test: co-IP; HEK293T cells cotransfected with Myc-USP9X and Flag-NRP1 or their deletion mutants for 24 h; IP of lysates with Flag beads (panel H: 'His beads'), IB with antibodies against Flag and Myc
[2] = biological target: NRP1 (Neuropilin-1), endogenous in mouse HSCs (mouse (endogenous in primary mouse HSCs and murine HSCs)) (UniProt P97333); test: co-IP; endogenous proteins; lysates (NETN buffer) of primary mouse HSCs and murine HSCs, 400 μg cell extract; IP with NRP1 or USP9X antibody overnight at 4 °C, protein A/G agarose beads, WB; IgG as isotype control

Protein sequences, listed by entry. Tags and fused reporters are not part of them.
UniProt P70398: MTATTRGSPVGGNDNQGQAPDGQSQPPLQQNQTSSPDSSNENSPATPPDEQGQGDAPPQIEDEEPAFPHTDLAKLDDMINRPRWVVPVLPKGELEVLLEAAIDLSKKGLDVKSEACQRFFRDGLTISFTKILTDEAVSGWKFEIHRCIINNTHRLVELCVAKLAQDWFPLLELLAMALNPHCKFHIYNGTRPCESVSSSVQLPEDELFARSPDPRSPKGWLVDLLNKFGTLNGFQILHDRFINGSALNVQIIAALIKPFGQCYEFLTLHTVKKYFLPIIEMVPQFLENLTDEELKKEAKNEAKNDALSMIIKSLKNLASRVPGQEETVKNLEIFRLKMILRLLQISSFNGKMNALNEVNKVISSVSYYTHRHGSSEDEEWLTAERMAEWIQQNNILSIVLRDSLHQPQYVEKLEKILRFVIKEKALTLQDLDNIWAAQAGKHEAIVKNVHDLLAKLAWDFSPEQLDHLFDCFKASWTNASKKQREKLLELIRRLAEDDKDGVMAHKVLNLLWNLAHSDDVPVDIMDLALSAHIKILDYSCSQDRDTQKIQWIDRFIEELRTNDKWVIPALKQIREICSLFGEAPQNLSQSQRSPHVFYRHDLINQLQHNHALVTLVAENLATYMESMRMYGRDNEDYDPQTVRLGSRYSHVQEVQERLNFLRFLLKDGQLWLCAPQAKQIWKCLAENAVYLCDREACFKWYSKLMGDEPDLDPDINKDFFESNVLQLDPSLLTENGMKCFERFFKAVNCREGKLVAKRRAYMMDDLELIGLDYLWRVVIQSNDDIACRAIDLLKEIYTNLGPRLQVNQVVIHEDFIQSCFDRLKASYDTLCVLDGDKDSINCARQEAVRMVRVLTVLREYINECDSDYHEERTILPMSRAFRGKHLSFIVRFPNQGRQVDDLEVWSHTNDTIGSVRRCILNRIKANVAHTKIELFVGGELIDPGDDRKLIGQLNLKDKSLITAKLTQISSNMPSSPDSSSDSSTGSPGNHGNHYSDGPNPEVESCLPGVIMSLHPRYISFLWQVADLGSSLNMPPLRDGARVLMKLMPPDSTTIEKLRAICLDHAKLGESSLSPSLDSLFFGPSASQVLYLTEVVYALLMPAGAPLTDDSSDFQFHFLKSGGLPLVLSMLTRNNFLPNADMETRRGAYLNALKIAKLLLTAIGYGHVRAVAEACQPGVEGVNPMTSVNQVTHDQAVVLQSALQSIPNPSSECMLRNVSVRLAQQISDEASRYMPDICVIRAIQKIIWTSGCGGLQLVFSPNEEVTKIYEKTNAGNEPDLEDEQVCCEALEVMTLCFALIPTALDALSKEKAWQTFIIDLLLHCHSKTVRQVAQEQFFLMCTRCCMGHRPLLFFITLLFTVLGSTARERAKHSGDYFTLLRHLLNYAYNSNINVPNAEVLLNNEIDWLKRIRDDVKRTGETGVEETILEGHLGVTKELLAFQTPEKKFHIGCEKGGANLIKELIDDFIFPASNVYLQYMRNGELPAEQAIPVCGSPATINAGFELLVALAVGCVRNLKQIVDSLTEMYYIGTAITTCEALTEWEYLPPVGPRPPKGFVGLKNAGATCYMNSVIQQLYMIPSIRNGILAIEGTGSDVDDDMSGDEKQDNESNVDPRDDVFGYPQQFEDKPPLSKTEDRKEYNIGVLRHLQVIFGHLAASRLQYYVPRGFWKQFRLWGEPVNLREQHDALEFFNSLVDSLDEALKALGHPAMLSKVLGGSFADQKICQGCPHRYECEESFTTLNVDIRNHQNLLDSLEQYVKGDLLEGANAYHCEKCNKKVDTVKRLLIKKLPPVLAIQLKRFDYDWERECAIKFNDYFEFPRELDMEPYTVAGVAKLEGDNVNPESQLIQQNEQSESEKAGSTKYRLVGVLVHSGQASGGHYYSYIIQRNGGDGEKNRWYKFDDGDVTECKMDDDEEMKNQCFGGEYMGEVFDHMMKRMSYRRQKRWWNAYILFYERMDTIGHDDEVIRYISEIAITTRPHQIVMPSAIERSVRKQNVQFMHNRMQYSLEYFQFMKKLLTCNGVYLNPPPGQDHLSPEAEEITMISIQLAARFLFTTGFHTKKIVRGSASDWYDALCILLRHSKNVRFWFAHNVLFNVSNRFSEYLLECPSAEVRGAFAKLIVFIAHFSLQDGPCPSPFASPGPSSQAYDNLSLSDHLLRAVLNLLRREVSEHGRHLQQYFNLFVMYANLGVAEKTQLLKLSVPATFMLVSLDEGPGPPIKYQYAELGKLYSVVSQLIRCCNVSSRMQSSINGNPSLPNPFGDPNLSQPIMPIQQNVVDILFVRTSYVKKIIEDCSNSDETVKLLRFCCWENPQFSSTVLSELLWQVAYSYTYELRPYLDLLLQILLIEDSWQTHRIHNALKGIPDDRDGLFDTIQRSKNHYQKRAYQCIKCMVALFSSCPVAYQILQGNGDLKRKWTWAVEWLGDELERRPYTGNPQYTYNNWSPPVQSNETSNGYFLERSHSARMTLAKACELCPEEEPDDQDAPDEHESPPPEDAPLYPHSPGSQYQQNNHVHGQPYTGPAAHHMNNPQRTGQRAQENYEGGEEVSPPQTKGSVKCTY

Substance | binding [1] | binding [2]
Myc-USP9X, co-transfected in HEK293T cells (from UniProt P70398 1-2559) (enzyme) | binds | –
USP9X (ubiquitin-specific peptidase 9X), endogenous in mouse HSCs (from UniProt P70398 1-2559) (enzyme) | – | binds

Source: publication PMC9849111
